From patent US20160193148A1, “LIPOSOMAL FORMULATIONS FOR THE TREATMENT OF BACTERIAL INFECTIONS” (UNIVERSITY OF GEORGIA RESEARCH FOUNDATION, INC., priority 2013, published 2016)
Some of these results come from one statement about several compounds together.

Assay: Plasma pharmacokinetics after single IV or nebulized dose in foals
Settings: nebulized 6.6 mg/kg, at all time points
Description: Eight healthy 5-7-week-old Quarter Horse foals were randomly assigned to one of 4 groups using a balanced Latin-square design. Foals were considered healthy on the basis of physical examinations, complete blood cell counts and plasma biochemical profiles. […] The liposome gentamicin formulation was nebulized using Nortev FLEXINEB. For each treatment, gentamicin was administered over a period of 15 minutes. There was a washout period of 7-14 days between each treatment.
For the BAL collection, foals were sedated with xylazine and butorphanol. Concentrations of gentamicin were measured in plasma and in bronchoalveolar cells using HPLC-MS.
Eight foals received a single IV or nebulized dose (6.6 mg/kg bwt) of FG^h or LG in a balanced Latin square design. Beginning at 5-7 weeks of age, every foal received each of the 4 possible drug-route combinations with a 14-day washout period between each administration. Intravenous FG and LG were diluted in 250 ml of sterile 0.9% saline and administered via a jugular catheter as a constant rate infusion over 15 min. Nebulized FG and LG were administered by inhalation over 15 minutes via a commercial equine nebulizer. To ensure equivalent rate of delivery, FG was diluted to the same volume as LG with sterile 0.9% saline. […]
For each foal, plasma, PELF, and BAL cell concentration versus time data were analyzed using commercial software. […]

## gentamicin sulfate [Free Gentamicin]
  Plasma concentrations of gentamicin after nebulized administration: ≤ 780 ng/mL
